## Library screening results

Mtb growth Cornell: 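Whole-cell assay for inhibitors of Mycobacterium tuberculosis growth, labelled Cornell in the record; the read-out is not stated. The concentration is filed as 10 mM, unlikely as a test dose, so the dose is not known. The record gives no direction; compounds strong in two other growth screens of this library score well above the rest, so higher reads as stronger inhibition. About 53,000 compounds were tested under these conditions; 1.7% (about 900) showed 50% or more at least once.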
Mtb heat-shock: 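Assay on Mycobacterium tuberculosis, filed only as a heat shock assay from Cornell; the read-out is not stated. The concentration is filed as 10 mM, unlikely as a test dose, so the dose is not known. Direction is inferred from retests: higher values go with stronger inhibition. Of about 69,000 compounds tested this way, about 930 (1.4%) reached 50% or more in at least one test.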

Values are the deposited “Percent Effect”, in %. The controls that fix the scale are not given in the record; negative values are as filed. Compounds were drawn at random from those tested, without regard to their results. A dash means the value is not listed here; it may have been measured.

SMILES,Mtb growth Cornell,Mtb heat-shock
O=c1ccc2c(n1CC1CC1)CCC(NS(=O)(=O)C1CC1)C2 (stereo unspecified),-30.12,-29.05
CCC1c2ccsc2CCN1C(=O)NCc1cccnc1OC (stereo unspecified),-,10.35
CN(Cc1ccccc1CN1CCCC1)c1ncnc2[nH]ccc12,6.461,14.21
CCOc1ccc(NC(=O)Nc2cnc(N3CCOCC3)nc2)cc1,29.48,-1.795
CC(Cn1cncn1)NC1CCN(Cc2cccc(O)c2)CC1 (stereo unspecified),-2.754,-45.04
CC(C(=O)O)N1CC2(CCC1=O)CCN(CCc1ccccc1)CC2 (stereo unspecified),-4.739,-14.81
CC(C)OCCC(=O)NCC(c1c(F)cccc1F)N(C)C (stereo unspecified),-,-4.404
O=C(O)C(F)(F)F.[H][C@@]12CCN(S(=O)(=O)C3CC3)[C@@]1([H])CCN2Cc1cccs1,4.981,-8.664
O=C(O)C(F)(F)F.O=C(O)C(F)(F)F.[H][C@@]12COC[C@]1(CNC(=O)c1ccco1)CN(Cc1ccncc1)C2,-,-3.617
CNC(=O)COC1COC2(CCN(Cc3ccncc3F)CC2)C1.O=C(O)C(F)(F)F (stereo unspecified),-12.44,44.76
Cc1nc(C)n(CC2CCCN(Cc3ccccc3C#N)C2)n1 (stereo unspecified),-25.22,-15.19
CC(C)Nc1nc(N2CCCC2)nc2c1CN(C)CC2,33.38,4.665
[H][C@@]12CCCO[C@]1([H])[C@H](N1CCN(C)CC1)CN2C(=O)c1ccsc1,7.812,-19.25
COc1cccc(-n2cc(CN(C)Cc3ccnc(C(C)C)n3)cn2)c1,15.1,21.27
CC(C)N1CCC2(CCCNC2)C1=O.Cl (stereo unspecified),20.57,-7.448
CC(=O)N1CCC[C@H]1C(=O)N(C)CCCOc1ccccc1,2.581,-23
CN(Cc1nnnn1C1CC1)c1cccc2ccccc12,-,-35.57
O=c1c2ccccc2nc2n1CCC2O (stereo unspecified),-,-10.06
CNc1cncc(C2CCCN2S(=O)(=O)c2cccc(F)c2)n1 (stereo unspecified),12.16,-2.556
Cc1cc(C2CCCN(C(=O)COc3ccc(F)cc3F)C2)n[nH]1 (stereo unspecified),23.36,3.105
Cn1cccc1C(=O)NCc1cnc2n1CCN(CC1CCOCC1)C2.O=C(O)C(F)(F)F,-27.35,9.451
Cc1cc(N2CCC3(CCCN(CCO)C3=O)C2)nc2cc(Cl)ccc12 (stereo unspecified),-8.888,-33.85
COc1ncnc2c1CCN(CC1CCOC1)CC2 (stereo unspecified),26.1,-0.6147
Nc1cc(-c2cncnc2C2CCN(C(=O)c3ccccc3)C2)ccn1 (stereo unspecified),5.569,22.26
Cn1cnnc1C1CCCN(C(=O)COCc2ccccc2)C1 (stereo unspecified),-,-8.225
Cc1cc(CNC(=O)C2CC(=O)N(CCN(C)C)C2)cc(C)n1 (stereo unspecified),-2.335,-10.23
CN(C)C(=O)CN1CCC2(CC1)CC(=O)c1c(ccc3ccccc13)O2,8.678,20.11
COCCNC(=O)c1ccoc1CN1c2ccccc2CC1C (stereo unspecified),34.19,-8.825
Cc1n[nH]c(C)c1CCC(=O)N1CCc2c(nc[nH]c2=O)C1,-26.57,-1.167
Cc1cc(N2CCCC2c2cc(Nc3cnccn3)nc(C)n2)ncn1 (stereo unspecified),2.319,-10.8
CC(C(=O)N(Cc1ccccc1)CC(F)(F)F)S(C)(=O)=O (stereo unspecified),-,13.91
Cc1nnc2n1CCN(CC(=O)N1CCc3ccccc3C1)C2,-,-3.853
CC(C)N1CCc2[nH]nc(C(=O)N3CCN(C)CC3)c2C1.O=C(O)C(F)(F)F.O=C(O)C(F)(F)F.O=C(O)C(F)(F)F,-,-9.027
Cc1nc(C2CCCNC2)cc(N(C)CCc2cn[nH]c2)n1 (stereo unspecified),-10.91,-23.38
COCCN1CCCC2(CCN(C(=O)c3cnc(O)cn3)C2)C1=O (stereo unspecified),-0.7706,1.996
Cc1cc(C)n(CC2CN(c3ncnc4[nH]ccc34)CCO2)n1 (stereo unspecified),14.68,-11.2
COc1cccc(C2C3=C(COC3=O)Nc3[nH]nc(C)c32)c1OC (stereo unspecified),-1.302,7.186
O=C(NCc1nnc2n1CCC2)c1cccc(Br)c1,-,0.543
CC1(C)CC(=O)c2cnc3nc(N4CCCCC4)nc(O)c3c2C1,44.92,5.224
CCCc1ccc(CN2CCC3(CCC(=O)N(CCCOC)C3)CC2)o1,-19.32,-9.818
O=C(NCCN1CCOC1=O)c1cc(-c2ccccc2)on1,1.331,-31.07
Cn1cncc1-c1nnc([C@H]2CCN(Cc3ncc[nH]3)C2)o1,1.027,-18.27
CNc1cncc(C2CCCN2S(=O)(=O)c2ccc(F)cc2)n1 (stereo unspecified),-1.269,-0.9891
CCc1cnc(N)nc1NCCCn1nc(C)nc1C,-9.299,-0.2218
CS(=O)(=O)NC1CCN(C(=O)COCc2ccccc2)CC1,5.286,12.4
COc1ccc(C(N)=O)cc1NCc1ncc(-c2cccs2)o1,1.053,4.274
Cl.Clc1ccc(-c2ccc(C3CNCCO3)nc2)cc1 (stereo unspecified),-,2.375
Cc1nn(C)c(N(C)C)c1CNCc1cccnc1-n1cncn1.Cl,-,-8.918
Cc1nccc(C(=O)NC(COCC(C)C)c2ccco2)n1 (stereo unspecified),-,-10.02
CN(Cc1nccn1CC(F)(F)F)C(=O)c1cccc(C#N)c1,10.8,4.411
CS(=O)(=O)CCC(=O)N1CCC2(CCCN(C3CCOCC3)C2=O)C1 (stereo unspecified),15.44,7.745
CNC(=O)CNCc1c[nH]nc1-c1cc2ccccc2o1.Cl,-5.506,4.817
[H][C@]12CC[C@]([H])(CN(c3nnc(C(C)C)s3)C1)N(CCC)C2,-13.42,23.85
Cc1cc(C)nc(N2CCC(NCCSc3nnnn3C)CC2)n1,33.24,-22.95
Cc1nc(-c2ccncc2)ncc1C(C)NC(=O)Cn1ccccc1=O (stereo unspecified),-23.83,10.07
COc1cc(CNCc2ccco2)ccc1OCCO.Cl,9.581,5.373
O=C(c1ccno1)N1CCOC[C@H](Oc2ccc(C(F)(F)F)cc2)C1,12.23,-42.18
CCOC(=O)CNc1nc(COC)nc2c1cnn2C,-48.25,10.9
COc1ncccc1CNC(=O)NCCNS(C)(=O)=O,-45.59,-3.997

Some entries from above, unchanged:

{"smiles": "CC(C(=O)N(Cc1ccccc1)CC(F)(F)F)S(C)(=O)=O", "stereo": "stereo unspecified", "Mtb heat-shock": 13.91}
{"smiles": "CNc1cncc(C2CCCN2S(=O)(=O)c2ccc(F)cc2)n1", "stereo": "stereo unspecified", "Mtb growth Cornell": -1.269, "Mtb heat-shock": -0.9891}
{"smiles": "Cc1nnc2n1CCN(CC(=O)N1CCc3ccccc3C1)C2", "Mtb heat-shock": -3.853}
{"smiles": "CCCc1ccc(CN2CCC3(CCC(=O)N(CCCOC)C3)CC2)o1", "Mtb growth Cornell": -19.32, "Mtb heat-shock": -9.818}
{"smiles": "CC1(C)CC(=O)c2cnc3nc(N4CCCCC4)nc(O)c3c2C1", "Mtb growth Cornell": 44.92, "Mtb heat-shock": 5.224}
{"smiles": "Cc1cc(CNC(=O)C2CC(=O)N(CCN(C)C)C2)cc(C)n1", "stereo": "stereo unspecified", "Mtb growth Cornell": -2.335, "Mtb heat-shock": -10.23}

Source: ChEMBL document CHEMBL3988442, “University of Dundee, Small-Polar-MMV Screening Library” (2021).